Laboratory results published in PMC3566092.
These are yes or no findings as the source states them, for the method shown. Binding seen in cells or lysates may run through a third protein. Some results given as binding are weak or reduced against the parent protein; the word gives no strength. Tags and fused reporters may be left off the sequences shown.

Legend:
Flag-WIP1 = molecular target: T1, Flag-WIP1 (UniProt O15297); assay: co-IP; 293 cells transfected with Flag-WIP1 alone or with CMV-Tax; nuclear lysates, Active Motif Nuclear Complex Co-IP Kit; immunoprecipitated with anti-WIP1 or anti-Tax antibodies, western blot with anti-Flag or anti-Tax
T1 sequence: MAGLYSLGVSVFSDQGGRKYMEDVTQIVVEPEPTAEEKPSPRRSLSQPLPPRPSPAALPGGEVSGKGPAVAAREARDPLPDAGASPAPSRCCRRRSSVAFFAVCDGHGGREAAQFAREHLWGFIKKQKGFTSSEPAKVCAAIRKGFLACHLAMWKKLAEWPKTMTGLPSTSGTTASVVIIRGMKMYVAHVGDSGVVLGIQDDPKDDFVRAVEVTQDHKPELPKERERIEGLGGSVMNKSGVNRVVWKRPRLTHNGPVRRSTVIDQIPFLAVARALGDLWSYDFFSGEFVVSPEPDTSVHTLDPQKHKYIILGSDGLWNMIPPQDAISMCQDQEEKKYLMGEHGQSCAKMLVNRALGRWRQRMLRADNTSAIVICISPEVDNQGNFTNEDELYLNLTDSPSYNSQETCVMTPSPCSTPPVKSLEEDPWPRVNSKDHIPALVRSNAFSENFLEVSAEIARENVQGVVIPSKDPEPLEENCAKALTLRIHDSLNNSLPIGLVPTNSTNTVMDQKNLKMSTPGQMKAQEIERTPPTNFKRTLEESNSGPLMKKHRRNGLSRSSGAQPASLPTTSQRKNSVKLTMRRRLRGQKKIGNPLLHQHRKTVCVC

[1] = molecular target: HTLV-1 Tax (expressed from a CMV-Tax plasmid) (human T cell leukemia virus type 1 (HTLV-1)) (UniProt P03409); assay: as above

HTLV-1 Tax (expressed from a CMV-Tax plasmid) (from UniProt P03409 1-353)
binding (Flag-WIP1): binds

B1: Flag-WIP1 (enzyme, UniProt O15297 1-605)
chain: T1 sequence
binding [1]: binds
